The supplement of paper PMC10849652
The other results are listed elsewhere or left out.

Chains of the proteins cited; added tags and fusions are not shown. Lines headed by an entry give the natural chain unless they say otherwise; changes in a name come on top.
UniProt P34897: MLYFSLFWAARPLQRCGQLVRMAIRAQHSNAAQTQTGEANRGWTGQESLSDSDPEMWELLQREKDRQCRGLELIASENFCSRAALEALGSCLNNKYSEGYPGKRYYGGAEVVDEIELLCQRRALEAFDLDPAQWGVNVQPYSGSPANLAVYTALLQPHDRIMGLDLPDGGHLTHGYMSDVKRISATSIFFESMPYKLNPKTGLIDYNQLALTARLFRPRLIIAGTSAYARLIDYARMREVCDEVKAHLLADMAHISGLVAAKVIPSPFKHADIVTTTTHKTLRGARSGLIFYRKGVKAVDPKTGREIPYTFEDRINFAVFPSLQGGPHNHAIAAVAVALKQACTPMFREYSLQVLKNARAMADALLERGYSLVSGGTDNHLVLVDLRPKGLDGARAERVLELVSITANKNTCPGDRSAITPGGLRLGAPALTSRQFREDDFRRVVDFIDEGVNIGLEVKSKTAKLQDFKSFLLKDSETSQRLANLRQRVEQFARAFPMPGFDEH
UniProt Q8IUQ4: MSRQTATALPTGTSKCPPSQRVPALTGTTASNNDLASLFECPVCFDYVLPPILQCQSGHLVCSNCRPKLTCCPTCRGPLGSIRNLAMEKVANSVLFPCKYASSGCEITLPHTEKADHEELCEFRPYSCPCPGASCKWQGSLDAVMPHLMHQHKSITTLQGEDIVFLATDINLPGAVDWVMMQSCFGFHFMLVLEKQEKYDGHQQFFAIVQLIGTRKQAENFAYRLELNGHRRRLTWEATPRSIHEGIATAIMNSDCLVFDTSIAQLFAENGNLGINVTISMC
UniProt Q15393: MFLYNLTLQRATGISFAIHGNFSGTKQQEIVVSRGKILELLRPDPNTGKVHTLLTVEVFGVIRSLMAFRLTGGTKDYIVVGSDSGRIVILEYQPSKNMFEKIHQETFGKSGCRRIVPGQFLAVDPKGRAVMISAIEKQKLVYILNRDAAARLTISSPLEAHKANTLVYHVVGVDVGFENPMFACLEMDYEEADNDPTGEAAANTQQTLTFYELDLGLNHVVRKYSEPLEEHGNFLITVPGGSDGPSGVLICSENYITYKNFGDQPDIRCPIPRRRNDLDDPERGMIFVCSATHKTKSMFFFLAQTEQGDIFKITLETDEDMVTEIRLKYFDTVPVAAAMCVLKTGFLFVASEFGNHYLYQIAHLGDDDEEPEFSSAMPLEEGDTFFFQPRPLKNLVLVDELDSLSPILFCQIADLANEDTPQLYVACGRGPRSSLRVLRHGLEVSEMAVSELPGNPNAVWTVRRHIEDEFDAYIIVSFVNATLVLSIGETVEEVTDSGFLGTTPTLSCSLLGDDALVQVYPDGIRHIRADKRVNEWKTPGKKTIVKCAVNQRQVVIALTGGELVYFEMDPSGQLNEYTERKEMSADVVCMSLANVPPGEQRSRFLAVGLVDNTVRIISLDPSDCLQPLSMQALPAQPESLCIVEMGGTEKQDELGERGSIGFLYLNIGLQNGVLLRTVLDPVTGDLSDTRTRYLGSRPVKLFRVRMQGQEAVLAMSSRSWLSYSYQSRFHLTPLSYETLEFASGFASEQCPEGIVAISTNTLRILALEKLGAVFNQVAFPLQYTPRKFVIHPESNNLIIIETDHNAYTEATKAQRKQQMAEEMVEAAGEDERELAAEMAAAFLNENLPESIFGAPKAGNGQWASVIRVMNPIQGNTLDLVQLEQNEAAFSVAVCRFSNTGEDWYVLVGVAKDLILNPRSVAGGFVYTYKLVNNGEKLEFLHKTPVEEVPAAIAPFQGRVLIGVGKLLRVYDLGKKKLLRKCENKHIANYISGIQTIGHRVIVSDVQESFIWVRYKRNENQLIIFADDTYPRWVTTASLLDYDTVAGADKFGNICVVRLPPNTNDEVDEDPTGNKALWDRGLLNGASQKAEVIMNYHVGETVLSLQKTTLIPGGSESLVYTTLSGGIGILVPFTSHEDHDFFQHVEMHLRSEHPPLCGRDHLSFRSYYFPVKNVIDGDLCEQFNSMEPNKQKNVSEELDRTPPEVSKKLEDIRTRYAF
UniProt Q96NB2: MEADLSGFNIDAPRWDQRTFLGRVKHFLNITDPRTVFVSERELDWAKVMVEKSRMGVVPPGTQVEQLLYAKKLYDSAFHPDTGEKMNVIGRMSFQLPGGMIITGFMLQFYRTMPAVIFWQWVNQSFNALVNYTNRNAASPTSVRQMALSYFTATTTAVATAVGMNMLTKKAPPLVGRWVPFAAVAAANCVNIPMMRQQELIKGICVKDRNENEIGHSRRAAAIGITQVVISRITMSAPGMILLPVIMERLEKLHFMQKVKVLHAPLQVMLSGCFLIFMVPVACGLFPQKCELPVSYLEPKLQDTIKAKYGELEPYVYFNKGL
UniProt Q86TU7: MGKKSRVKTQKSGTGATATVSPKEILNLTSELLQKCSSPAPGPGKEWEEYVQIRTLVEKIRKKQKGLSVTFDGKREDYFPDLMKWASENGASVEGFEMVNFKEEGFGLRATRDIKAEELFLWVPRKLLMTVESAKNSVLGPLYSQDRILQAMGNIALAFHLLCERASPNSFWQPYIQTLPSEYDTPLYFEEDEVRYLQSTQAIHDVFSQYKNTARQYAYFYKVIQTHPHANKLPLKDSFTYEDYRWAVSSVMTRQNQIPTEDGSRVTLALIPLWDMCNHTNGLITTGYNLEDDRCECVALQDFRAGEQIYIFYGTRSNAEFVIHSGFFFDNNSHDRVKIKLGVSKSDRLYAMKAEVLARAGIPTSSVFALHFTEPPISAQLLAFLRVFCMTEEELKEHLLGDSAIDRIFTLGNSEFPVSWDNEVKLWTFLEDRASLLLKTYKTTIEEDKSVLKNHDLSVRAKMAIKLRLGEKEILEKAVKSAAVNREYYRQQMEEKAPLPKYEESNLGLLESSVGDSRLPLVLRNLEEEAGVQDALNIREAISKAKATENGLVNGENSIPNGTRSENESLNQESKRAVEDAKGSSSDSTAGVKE
UniProt Q8NEM2: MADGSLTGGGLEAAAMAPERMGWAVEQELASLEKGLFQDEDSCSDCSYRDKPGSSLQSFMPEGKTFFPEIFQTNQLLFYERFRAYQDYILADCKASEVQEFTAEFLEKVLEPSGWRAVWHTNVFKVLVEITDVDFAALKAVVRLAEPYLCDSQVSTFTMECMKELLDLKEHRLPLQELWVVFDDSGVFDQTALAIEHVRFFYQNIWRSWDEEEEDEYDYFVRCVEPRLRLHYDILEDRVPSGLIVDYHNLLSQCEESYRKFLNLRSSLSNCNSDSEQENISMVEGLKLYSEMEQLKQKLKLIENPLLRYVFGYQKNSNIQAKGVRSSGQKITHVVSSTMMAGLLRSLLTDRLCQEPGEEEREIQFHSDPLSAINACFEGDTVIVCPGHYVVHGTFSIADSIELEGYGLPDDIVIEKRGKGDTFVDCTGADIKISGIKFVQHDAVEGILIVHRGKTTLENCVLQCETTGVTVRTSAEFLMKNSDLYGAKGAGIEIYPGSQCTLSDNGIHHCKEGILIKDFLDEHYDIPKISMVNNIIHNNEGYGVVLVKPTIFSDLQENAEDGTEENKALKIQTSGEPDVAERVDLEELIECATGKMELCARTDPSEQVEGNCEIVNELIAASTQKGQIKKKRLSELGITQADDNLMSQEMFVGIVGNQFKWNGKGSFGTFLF
UniProt O95470: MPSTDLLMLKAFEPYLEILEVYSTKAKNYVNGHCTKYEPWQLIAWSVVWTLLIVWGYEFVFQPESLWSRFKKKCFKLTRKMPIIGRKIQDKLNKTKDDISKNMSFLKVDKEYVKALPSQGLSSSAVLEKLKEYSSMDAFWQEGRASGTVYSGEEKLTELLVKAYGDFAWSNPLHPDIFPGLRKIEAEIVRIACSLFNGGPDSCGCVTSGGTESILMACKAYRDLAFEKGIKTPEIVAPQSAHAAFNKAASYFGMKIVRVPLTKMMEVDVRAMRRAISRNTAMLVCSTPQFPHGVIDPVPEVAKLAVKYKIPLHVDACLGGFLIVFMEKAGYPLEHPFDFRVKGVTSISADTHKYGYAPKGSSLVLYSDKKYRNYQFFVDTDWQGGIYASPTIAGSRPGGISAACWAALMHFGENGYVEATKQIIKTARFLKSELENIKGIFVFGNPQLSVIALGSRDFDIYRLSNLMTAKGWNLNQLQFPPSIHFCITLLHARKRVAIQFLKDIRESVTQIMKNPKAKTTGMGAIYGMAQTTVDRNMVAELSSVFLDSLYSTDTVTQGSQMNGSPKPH
UniProt Q12874: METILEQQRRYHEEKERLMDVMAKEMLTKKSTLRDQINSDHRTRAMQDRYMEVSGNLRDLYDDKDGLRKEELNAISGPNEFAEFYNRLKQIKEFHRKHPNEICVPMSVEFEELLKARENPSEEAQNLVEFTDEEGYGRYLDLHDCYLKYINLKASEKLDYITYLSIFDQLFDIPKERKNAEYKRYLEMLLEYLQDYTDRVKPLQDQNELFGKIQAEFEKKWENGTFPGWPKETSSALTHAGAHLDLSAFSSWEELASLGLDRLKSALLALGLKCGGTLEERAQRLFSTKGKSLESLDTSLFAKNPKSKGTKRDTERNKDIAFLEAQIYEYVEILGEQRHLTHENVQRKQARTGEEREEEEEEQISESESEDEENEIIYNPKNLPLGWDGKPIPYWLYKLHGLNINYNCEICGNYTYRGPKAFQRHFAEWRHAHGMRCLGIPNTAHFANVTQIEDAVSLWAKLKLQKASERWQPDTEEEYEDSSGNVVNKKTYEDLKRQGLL
UniProt Q8TD22: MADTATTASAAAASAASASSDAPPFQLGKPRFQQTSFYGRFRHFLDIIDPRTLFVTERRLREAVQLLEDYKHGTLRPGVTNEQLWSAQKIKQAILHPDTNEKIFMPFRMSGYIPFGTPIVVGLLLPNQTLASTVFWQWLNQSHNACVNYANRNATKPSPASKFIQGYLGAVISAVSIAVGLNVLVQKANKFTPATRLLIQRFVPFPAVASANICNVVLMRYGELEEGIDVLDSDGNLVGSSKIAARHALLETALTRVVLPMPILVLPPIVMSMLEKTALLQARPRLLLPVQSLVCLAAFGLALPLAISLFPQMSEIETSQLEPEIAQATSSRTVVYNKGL
UniProt Q99961: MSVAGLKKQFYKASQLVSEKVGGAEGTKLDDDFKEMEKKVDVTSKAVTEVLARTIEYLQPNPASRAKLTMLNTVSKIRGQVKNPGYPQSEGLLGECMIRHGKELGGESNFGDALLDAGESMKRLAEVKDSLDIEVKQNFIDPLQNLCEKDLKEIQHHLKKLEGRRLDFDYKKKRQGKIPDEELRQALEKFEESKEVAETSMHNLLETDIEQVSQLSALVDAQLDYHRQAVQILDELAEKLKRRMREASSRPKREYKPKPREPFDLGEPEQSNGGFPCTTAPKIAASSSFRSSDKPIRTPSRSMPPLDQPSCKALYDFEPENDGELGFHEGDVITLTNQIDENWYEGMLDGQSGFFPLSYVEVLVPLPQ
UniProt Q96BD8: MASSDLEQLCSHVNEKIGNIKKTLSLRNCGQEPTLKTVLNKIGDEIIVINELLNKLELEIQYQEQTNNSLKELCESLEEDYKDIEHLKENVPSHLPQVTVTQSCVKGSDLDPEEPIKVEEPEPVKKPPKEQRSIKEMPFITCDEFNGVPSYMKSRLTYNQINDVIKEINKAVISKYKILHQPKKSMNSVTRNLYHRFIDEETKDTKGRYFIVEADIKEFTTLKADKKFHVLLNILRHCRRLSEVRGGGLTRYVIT
UniProt Q99720, whole entry, looked up: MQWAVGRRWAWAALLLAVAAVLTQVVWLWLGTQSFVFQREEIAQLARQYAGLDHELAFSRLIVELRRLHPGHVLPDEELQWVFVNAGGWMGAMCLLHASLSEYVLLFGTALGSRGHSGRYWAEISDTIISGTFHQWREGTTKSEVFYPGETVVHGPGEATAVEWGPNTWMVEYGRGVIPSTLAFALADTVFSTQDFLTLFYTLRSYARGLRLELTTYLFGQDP
UniProt Q13530: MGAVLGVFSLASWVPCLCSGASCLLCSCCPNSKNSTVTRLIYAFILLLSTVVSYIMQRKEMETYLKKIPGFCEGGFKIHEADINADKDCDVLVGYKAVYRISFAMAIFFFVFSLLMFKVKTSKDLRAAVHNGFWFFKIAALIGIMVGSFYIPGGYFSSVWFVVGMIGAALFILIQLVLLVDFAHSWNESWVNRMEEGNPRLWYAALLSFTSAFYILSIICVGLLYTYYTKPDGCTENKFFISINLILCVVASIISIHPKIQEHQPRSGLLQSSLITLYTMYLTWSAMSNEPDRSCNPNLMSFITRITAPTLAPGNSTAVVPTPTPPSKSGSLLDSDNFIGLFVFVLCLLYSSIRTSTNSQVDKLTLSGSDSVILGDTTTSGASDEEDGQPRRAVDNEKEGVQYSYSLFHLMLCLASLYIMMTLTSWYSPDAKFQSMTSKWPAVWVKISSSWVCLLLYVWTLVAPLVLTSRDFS

Experiments:
Test in all cases: log2 fold change, soluble protein after heating vs DMSO (PISA); higher = thermal stabilisation; K562 cells, 10 uM, 30 min; active = over 0.2 and 3.5 SD of the protein, either way, in both replicates (recomputed)
[1] = compound: CS(=O)(=O)c1ccc(-c2cnc(N)c(C(=O)Nc3ccccc3)n2)cc1
How it was run: (§1)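 Thermal stability values are relative to control samples and come from duplicates. They are expressed as log2 fold changes. For measurement, K562 cells (2×10^6 cells/mL) received 10 μM compound for 30 min, and aliquots were heated for 3 min over 48°C-58°C, pooled, and extracted at 4°C in PBS with 0.5% NP-40. Soluble protein, the supernatant after 21,000xg for 90 min, was quantified by TMTpro 16plex LC-MS/MS with equalised channel sums.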

[2] = compound: C[C@@H](Oc1cc(-c2cnn(C3CCNCC3)c2)cnc1N)c1c(Cl)ccc(F)c1Cl [crizotinib]
How it was run: as §1

[3] = compound: C[C@@H]1COCCN1C2=NC(=NC(=C2)C3(CC3)S(=O)(=O)C)C4=C5C=CNC5=CC=C4
How it was run: as §1

[4] = compound: C[C@H](C1=CC=C(C=C1)C(=O)NC2=C3C=CNC3=NC=C2)N
How it was run: as §1

[5] = compound: C[C@H](Nc1ncnc2nc[nH]c12)c1cc2cccc(Cl)c2c(=O)n1-c1ccccc1 [duvelisib]
How it was run: as §1

[6] = compound: Cc1cc(Nc2cc(CN3CCOCC3)c3nc(C)c(Cc4ccc(Cl)cc4F)n3n2)n[nH]1 [gandotinib]
How it was run: as §1

[7] = compound: Cc1cc(Nc2cc(N3CCN(C)CC3)nc(Sc3ccc(NC(=O)C4CC4)cc3)n2)n[nH]1 [tozasertib]
How it was run: as §1

[8] = compound: Cc1cc(SCc2sc(-c3ccc(C(F)(F)F)cc3)nc2C)ccc1OCC(=O)O
How it was run: as §1

[9] = compound: Cc1ccc(-n2nc(C(C)(C)C)cc2NC(=O)Nc2ccc(OCCN3CCOCC3)c3ccccc23)cc1 [doramapimod]
How it was run: as §1

[10] = compound: Cc1ccc(C(=O)N(CCCN)[C@@H](c2nc3cc(Cl)ccc3c(=O)n2Cc2ccccc2)C(C)C)cc1 [ispinesib]
How it was run: as §1

[11] = compound: Cc1ccc(NC(=O)c2ccc(CN3CC[C@H](N(C)C)C3)c(C(F)(F)F)c2)cc1Nc1nccc(-c2cncnc2)n1 [bafetinib]
How it was run: as §1

[12] = compound: Cc1cccc(CC(=O)N2CCc3c2ccc(-c2cn(C)c4ncnc(N)c24)c3F)n1
How it was run: as §1

[13] = compound: Cc1cn(-c2cc(NC(=O)c3ccc(C)c(Nc4nccc(-c5cccnc5)n4)c3)cc(C(F)(F)F)c2)cn1 [nilotinib]
How it was run: as §1

[14] = compound: Cc1nc(Nc2n[nH]c3c2CN(C(=O)N[C@H](CN(C)C)c2ccccc2)C3(C)C)c2sccc2n1
How it was run: as §1

[15] = compound: Cc1nc(Nc2ncc(C(=O)Nc3c(C)cccc3Cl)s2)cc(N2CCN(CCO)CC2)n1 [dasatinib]
How it was run: as §1

[16] = compound: Cc1ncc(-c2ccnc(Nc3ccc(S(C)(=O)=O)cc3)n2)n1C(C)C
How it was run: as §1

[17] = compound: Cn1cc(-c2ccc3c(c2)CCN3C(=O)Cc2cccc(C(F)(F)F)c2)c2c(N)ncnc21
How it was run: as §1

[18] = compound: Cn1cc(-c2ccc3nnc(C(F)(F)c4ccc5ncccc5c4)n3n2)cn1
How it was run: as §1

[19] = compound: Cn1cncc1[C@@](N)(c1ccc(Cl)cc1)c1ccc2c(c1)c(-c1cccc(Cl)c1)cc(=O)n2C [tipifarnib]
How it was run: as §1

[20] = compound: FC(F)(F)c1ccc(/C=C/c2nc(COc3ccc(CCCCn4ccnn4)cc3)co2)cc1 [mubritinib]
How it was run: as §1

| Target | log2 fold change [1] | log2 fold change [2] | log2 fold change [3] | log2 fold change [4] | log2 fold change [5] | log2 fold change [6] | log2 fold change [7] | log2 fold change [8] | log2 fold change [9] | log2 fold change [10] | log2 fold change [11] | log2 fold change [12] | log2 fold change [13] | log2 fold change [14] | log2 fold change [15] | log2 fold change [16] | log2 fold change [17] | log2 fold change [18] | log2 fold change [19] | log2 fold change [20] |
| --- | --- | --- | --- | --- | --- | --- | --- | --- | --- | --- | --- | --- | --- | --- | --- | --- | --- | --- | --- | --- |
| SHMT2 (UniProt P34897) | inactive: -0.012 | inactive: 0.035 | inactive: 0.074 | inactive: -0.038 | inactive: 0.005 | inactive: 0 | inactive: -0.018 | inactive: -0.03 | inactive: -0.01 | inactive: 0.015 | inactive: -0.026 | inactive: -0.04 | inactive: 0.003 | inactive: 0.018 | inactive: 0.035 | inactive: -0.024 | inactive: 0.013 | inactive: 0.026 | inactive: -0.009 | inactive: 0.023 |
| SIAH1 isoform 2 (UniProt Q8IUQ4) | inactive: -0.016 | inactive: -0.095 | inactive: 0.37 | inactive: 0.034 | inactive: -0.004 | inactive: 0.07 | inactive: -0.155 | inactive: 0.022 | inactive: -0.016 |  | inactive: 0.206 | inactive: -0.175 |  |  | inactive: -0.099 |  | inactive: -0.043 |  | inactive: -0.014 |  |
| SEPTIN5 (UniProt Q99719) | inactive: 0.004 | inactive: 0.017 | inactive: 0.036 | inactive: -0.036 |  | inactive: -0.023 |  | inactive: -0.017 | inactive: -0.017 | inactive: 0.027 | inactive: -0.017 | inactive: 0.021 | inactive: -0.011 | inactive: 0.002 | inactive: -0.048 | inactive: -0.006 | inactive: 0.051 | inactive: 0.025 | inactive: -0.024 | inactive: 0.007 |
| SERPINB6, A0A087X1N8 | inactive: 0.014 | inactive: 0.029 | inactive: -0.018 | inactive: -0.103 | inactive: -0.004 | inactive: 0.046 | inactive: -0.016 | inactive: -0.009 | inactive: -0.033 | inactive: 0.09 | inactive: -0.02 | inactive: 0.001 | inactive: 0.042 | inactive: -0.015 | inactive: 0.031 | inactive: 0.004 | inactive: 0.01 | inactive: -0.028 | inactive: 0.029 | inactive: 0.019 |
| SF3B3 (UniProt Q15393) | inactive: -0.001 | inactive: -0.027 | inactive: 0 | inactive: -0.015 | inactive: 0.03 | inactive: -0.061 | inactive: 0.059 | inactive: -0.003 | inactive: -0.005 | inactive: 0.068 | inactive: -0.019 | inactive: 0 | inactive: -0.001 | inactive: 0.003 | inactive: -0.003 | inactive: 0.057 | inactive: -0.062 | inactive: -0.002 | inactive: -0.071 | inactive: 0.002 |
| SFXN2 (UniProt Q96NB2) | inactive: 0.049 | inactive: 0.003 | inactive: 0.243 | inactive: -0.042 | inactive: 0.057 | inactive: 0.006 | inactive: -0.047 | inactive: -0.068 | inactive: -0.028 | inactive: -0.039 | inactive: -0.145 | inactive: -0.013 | inactive: 0 | inactive: -0.015 | inactive: -0.029 | inactive: -0.007 | inactive: 0.054 | inactive: 0.046 | inactive: 0.058 | inactive: 0.06 |
| SETD3 (UniProt Q86TU7) | inactive: 0.007 | inactive: 0.051 | inactive: 0.076 | inactive: -0.012 |  | inactive: 0.021 |  | inactive: 0.012 | inactive: -0.026 | inactive: 0.059 | inactive: -0.015 | inactive: -0.005 | inactive: 0.002 | inactive: -0.009 | inactive: 0.006 | inactive: -0.023 | inactive: 0.033 | inactive: 0.031 | inactive: 0.029 | inactive: 0.052 |
| SHCBP1 (UniProt Q8NEM2) | inactive: 0.092 | inactive: -0.077 | inactive: 0.043 | inactive: 0.119 |  | inactive: -0.124 |  | inactive: 0.169 | inactive: 0.02 | inactive: -0.096 | inactive: -0.017 | inactive: 0.041 | inactive: -0.207 | active: -0.459 | inactive: -0.091 | inactive: 0.003 | inactive: 0.223 | inactive: 0.004 | inactive: 0.299 | inactive: 0.1 |
| SETDB1 (UniProt Q15047) | inactive: 0.052 | inactive: 0.02 | inactive: 0.054 | inactive: -0.013 | inactive: 0.028 | inactive: -0.073 | inactive: -0.226 | inactive: -0.021 | inactive: 0.048 | inactive: -0.085 |  | inactive: -0.036 | inactive: -0.263 | inactive: 0.1 | inactive: 0.025 | inactive: 0 | inactive: 0.091 | inactive: 0.007 | inactive: 0.018 | inactive: 0.052 |
| SGPL1 (UniProt O95470) | inactive: 0.095 | inactive: 0.077 | inactive: -0.034 | inactive: 0.011 |  | inactive: 0.259 |  | inactive: 0.024 | inactive: 0.084 | inactive: 0.077 | inactive: 0.009 | inactive: -0.013 | inactive: 0.024 | inactive: -0.017 | inactive: 0.016 | inactive: -0.029 | inactive: -0.005 | inactive: -0.071 | inactive: 0.151 | inactive: 0.034 |
| SF3A3 (UniProt Q12874) | inactive: 0 | inactive: 0.118 | inactive: -0.009 | inactive: 0.055 | inactive: 0.011 | inactive: -0.013 | inactive: 0.006 | inactive: 0.136 | inactive: -0.002 | inactive: 0.119 | inactive: 0.045 | inactive: 0.008 | inactive: -0.006 | inactive: -0.225 | inactive: -0.02 | inactive: 0.026 | inactive: -0.011 | inactive: -0.021 | inactive: -0.015 | inactive: 0.086 |
| SFXN5 (UniProt Q8TD22) | inactive: 0.144 | inactive: 0.021 | inactive: 0.073 | inactive: -0.137 |  | inactive: -0.026 |  | inactive: 0.076 | inactive: -0.055 | inactive: 0.049 | active: -0.3 | inactive: 0.017 | inactive: -0.052 | inactive: 0.049 | inactive: 0.084 | inactive: 0.134 | inactive: 0.107 | inactive: 0.093 | inactive: 0.022 | inactive: 0.041 |
| SH3GL1 (UniProt Q99961) | inactive: 0.067 | inactive: -0.144 | inactive: 0.024 | inactive: 0.062 |  | inactive: -0.031 |  | inactive: 0.103 | inactive: 0.007 | inactive: -0.156 | inactive: -0.018 | inactive: 0.069 | inactive: -0.084 | inactive: -0.18 | inactive: -0.262 | inactive: -0.014 | inactive: 0.055 | inactive: 0.02 | inactive: -0.114 | inactive: 0.122 |
| SLAIN2 (UniProt Q9P270) | inactive: -0.039 | inactive: -0.024 | inactive: 0.012 | inactive: -0.022 | inactive: -0.062 | inactive: -0.096 | inactive: -0.016 | inactive: 0.018 | inactive: 0.019 | inactive: -0.048 | inactive: 0.106 | inactive: 0.057 | inactive: 0.023 | inactive: -0.026 | inactive: 0.124 | inactive: -0.185 | inactive: -0.004 | inactive: -0.051 | inactive: 0.037 | inactive: -0.017 |
| SKA1 (UniProt Q96BD8) | inactive: 0.013 | inactive: -0.018 | inactive: -0.295 | inactive: 0.341 | inactive: -0.153 | inactive: -0.237 |  | inactive: 0.052 | inactive: 0.286 | inactive: 0.125 |  | inactive: 0.079 | inactive: -0.276 | inactive: -0.24 | inactive: 0.096 | inactive: 0.042 | inactive: -0.325 | inactive: -0.164 | inactive: 0.066 | inactive: 0.081 |
| SIGMAR1 (UniProt Q99720) | inactive: -0.038 | inactive: 0.029 | inactive: -0.053 | inactive: 0.045 | inactive: 0.013 | inactive: 0.025 | inactive: 0.011 | inactive: -0.068 | inactive: 0.084 | inactive: 0.07 | inactive: -0.029 | inactive: -0.133 | inactive: 0.015 | inactive: 0.006 | inactive: -0.019 | inactive: -0.033 | inactive: -0.04 | inactive: -0.002 | inactive: 0.131 | inactive: 0.029 |
| SERINC3 (UniProt Q13530) | inactive: 0.15 | inactive: -0.228 | inactive: 0.017 | inactive: 0.225 |  | inactive: -0.088 |  | inactive: 0.096 | inactive: -0.051 | inactive: -0.17 | inactive: -0.031 | inactive: -0.035 | inactive: 0.02 | inactive: 0.039 | inactive: -0.123 | inactive: 0.07 | inactive: -0.014 | inactive: -0.077 | inactive: -0.115 | inactive: 0.009 |

Part of the list above with just log2 fold change [4]:

| Target | log2 fold change [4] |
| --- | --- |
| SGPL1 (UniProt O95470) | inactive: 0.011 |
| SF3A3 (UniProt Q12874) | inactive: 0.055 |
